Measurements as given in PubChem BioAssay AID624367 (Broad Institute, 2012).
Inconclusive means that the source gave no clear call. Such entries were picked first, then a sample of the others. Activity calls are given as the source filed them. The rule behind the calls is not given here.

Experiment: lymphoblastoid cell cytotoxicity, dose response, cytotoxicity control, plate reader, dry powder, set 2 (AID 624367)
Conditions: Lymphoblastoid cell line (LCL) cytotoxicity; at 35 µM (top of the series)

Structure (SMILES)	activity change, negative = cytotoxicity
C[C@H]1CN([C@@H](C)CO)S(=O)(=O)c2ccc(C#Cc3ccncc3)cc2O[C@H]1CN(C)C(=O)Nc1ccc2c(c1)OCO2	inconclusive: -10.4%
COc1cccc(S(=O)(=O)N(C)C[C@H]2Oc3cc(C4=CCCCC4)ccc3S(=O)(=O)N([C@H](C)CO)C[C@H]2C)c1	inactive: -4.62%
